Three molecules from article PMC5691037 can be followed below.

Chains of the proteins cited; added tags and fusions are not shown. Lines headed by an entry give the natural chain unless they say otherwise; changes in a name come on top. Residues count along the entry.
UniProt Q86T03: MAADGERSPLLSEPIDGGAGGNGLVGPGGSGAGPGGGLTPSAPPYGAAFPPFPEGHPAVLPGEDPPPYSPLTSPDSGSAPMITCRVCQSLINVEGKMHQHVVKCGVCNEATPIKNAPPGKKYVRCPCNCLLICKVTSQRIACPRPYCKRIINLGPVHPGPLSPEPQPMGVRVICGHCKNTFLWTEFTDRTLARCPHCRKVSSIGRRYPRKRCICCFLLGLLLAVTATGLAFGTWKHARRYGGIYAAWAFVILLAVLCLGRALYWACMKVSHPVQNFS
GFP-TMEM55B CD (cytosolic domain): residues 1-207 of Q86T03
UniProt Q8N4L2: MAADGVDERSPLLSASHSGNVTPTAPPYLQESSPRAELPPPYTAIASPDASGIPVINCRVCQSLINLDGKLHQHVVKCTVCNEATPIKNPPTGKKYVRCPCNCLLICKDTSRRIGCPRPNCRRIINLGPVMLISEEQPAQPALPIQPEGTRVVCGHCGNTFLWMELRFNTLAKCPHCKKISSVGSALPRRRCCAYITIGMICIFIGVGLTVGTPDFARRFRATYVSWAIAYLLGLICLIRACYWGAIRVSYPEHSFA
GFP-TMEM55A CD: residues 1-181 of Q8N4L2

These are yes or no findings as the source states them, for the method shown. For some of these results: In cells and extracts the contact can be indirect. Some binding calls cover weakened binding; strength is not graded here. For some of these results: Sequences can lack the tags named with a protein.

One test concerns the target T1, GFP-LAMP-1 (UniProt P11279).
T1 sequence: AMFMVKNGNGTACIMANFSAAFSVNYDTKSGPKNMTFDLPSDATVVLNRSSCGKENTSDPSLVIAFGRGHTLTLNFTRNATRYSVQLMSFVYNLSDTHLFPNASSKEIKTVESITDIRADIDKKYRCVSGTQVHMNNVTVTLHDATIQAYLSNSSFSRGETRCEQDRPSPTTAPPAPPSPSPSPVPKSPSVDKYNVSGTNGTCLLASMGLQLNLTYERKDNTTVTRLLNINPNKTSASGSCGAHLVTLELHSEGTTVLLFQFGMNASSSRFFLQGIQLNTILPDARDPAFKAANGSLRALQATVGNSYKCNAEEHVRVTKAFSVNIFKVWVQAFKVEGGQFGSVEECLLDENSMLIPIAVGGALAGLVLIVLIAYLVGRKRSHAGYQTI
The experiment in a line: pull-down; GFP pull-down on GFP-nanobody beads (Chromotek) from lysates of transfected ARPE-19 cells, immunoblot; 25 mM Tris-HCl pH 7.5, 300 mM NaCl, 5 mM EDTA, 1% Triton X-100, 2 h at 4 °C.

Test [1] has as its target GFP-TMEM55B (in U2OS cells) (human) (UniProt Q86T03). Nature of the test: SDS-PAGE and immunoblot of cell lysate; U2OS cells expressing GFP-TMEM55B, untreated or treated with 150 µM NaAsO2; SDS-PAGE under reducing conditions. Background: In western blotting, separated proteins are transferred to a membrane and probed.
For another test, the target named is GFP-TMEM55A CD (human) (UniProt Q8N4L2). The experiment in a line: pull-down; GFP pull-down on GFP-nanobody beads (Chromotek) from lysates of transfected ARPE-19 cells, immunoblot; 25 mM Tris-HCl pH 7.5, 300 mM NaCl, 5 mM EDTA, 1% Triton X-100, 2 h at 4 °C.
The target of another test is GFP-TMEM55A FL (human) (UniProt Q8N4L2). The test is described as above.
Test [2] has as its target GFP-TMEM55B CD (cytosolic domain) (human) (UniProt Q86T03). The description is as above.
The target of test [3] is GFP-TMEM55B FL (full length) (human) (UniProt Q86T03). Described as above.

For “3xHA-TMEM55B (from UniProt Q86T03 1-277)”, the binding result with GFP-LAMP-1 is reported as “no binding”.
Consider “GFP-TMEM55B (in U2OS cells) (from UniProt Q86T03 1-277)”, for which the binding result in test [1] is “binds”.

B1: JIP4 (endogenous) (protein, UniProt O60271 1-1321)
chain: MELEDGVVYQEEPGGSGAVMSERVSGLAGSIYREFERLIGRYDEEVVKELMPLVVAVLENLDSVFAQDQEHQVELELLRDDNEQLITQYEREKALRKHAEEKFIEFEDSQEQEKKDLQTRVESLESQTRQLELKAKNYADQISRLEEREAELKKEYNALHQRHTEMIHNYMEHLERTKLHQLSGSDQLESTAHSRIRKERPISLGIFPLPAGDGLLTPDAQKGGETPGSEQWKFQELSQPRSHTSLKVSNSPEPQKAVEQEDELSDVSQGGSKATTPASTANSDVATIPTDTPLKEENEGFVKVTDAPNKSEISKHIEVQVAQETRNVSTGSAENEEKSEVQAIIESTPELDMDKDLSGYKGSSTPTKGIENKAFDRNTESLFEELSSAGSGLIGDVDEGADLLGMGREVENLILENTQLLETKNALNIVKNDLIAKVDELTCEKDVLQGELEAVKQAKLKLEEKNRELEEELRKARAEAEDARQKAKDDDDSDIPTAQRKRFTRVEMARVLMERNQYKERLMELQEAVRWTEMIRASRENPAMQEKKRSSIWQFFSRLFSSSSNTTKKPEPPVNLKYNAPTSHVTPSVKKRSSTLSQLPGDKSKAFDFLSEETEASLASRREQKREQYRQVKAHVQKEDGRVQAFGWSLPQKYKQVTNGQGENKMKNLPVPVYLRPLDEKDTSMKLWCAVGVNLSGGKTRDGGSVVGASVFYKDVAGLDTEGSKQRSASQSSLDKLDQELKEQQKELKNQEELSSLVWICTSTHSATKVLIIDAVQPGNILDSFTVCNSHVLCIASVPGARETDYPAGEDLSESGQVDKASLCGSMTSNSSAETDSLLGGITVVGCSAEGVTGAATSPSTNGASPVMDKPPEMEAENSEVDENVPTAEEATEATEGNAGSAEDTVDISQTGVYTEHVFTDPLGVQIPEDLSPVYQSSNDSDAYKDQISVLPNEQDLVREEAQKMSSLLPTMWLGAQNGCLYVHSSVAQWRKCLHSIKLKDSILSIVHVKGIVLVALADGTLAIFHRGVDGQWDLSNYHLLDLGRPHHSIRCMTVVHDKVWCGYRNKIYVVQPKAMKIEKSFDAHPRKESQVRQLAWVGDGVWVSIRLDSTLRLYHAHTYQHLQDVDIEPYVSKMLGTGKLGFSFVRITALMVSCNRLWVGTGNGVIISIPLTETNKTSGVPGNRPGSVIRVYGDENSDKVTPGTFIPYCSMAHAQLCFHGHRDAVKFFVAVPGQVISPQSSSSGTDLTGDKAGPSAQEPGSQTPLKSMLVISGGEGYIDFRMGDEGGESELLGEDLPLEPSVTKAERSHLIVWQVMYGNE
As for B1, the binding result is on record as “no binding” with GFP-LAMP-1; “no binding” in the test with GFP-TMEM55A CD (human); “no binding” in the test with GFP-TMEM55A FL (human); “binds” in test [2]; “binds” in test [3].
